Assay results taken from patent publication US11033537B2, “LPT-723 and immune checkpoint inhibitor combinations and methods of treatment” (BIOMED VALLEY DISCOVERIES, INC., priority 2015, dated 2021).
Some results were stated once for a whole list of compounds, not compound by compound.

Test system: Pan02 murine syngeneic pancreatic cancer
Assay: Pan02 pancreatic cancer syngeneic model
Format: in vivo, C57/BL6 mice
Details: LPT-723 30 mpk p.o. twice a day; anti-PD-1 10 mpk i.p. twice a week

SMILES: Cc1cc(-c2cncc(C(O)C(F)(F)F)c2)nc2c1C(=O)N(c1cnn(CC(F)F)c1)C2(C)C (stereo not shown) [LPT-723]
- decreased median tumor volume: greater than 60%
